Results deposited as PubChem BioAssay AID602196 (INSERM, 2012)

- Screen: 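Knock-downs that protect lung cancer cells from cisplatin or sensitise them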
- Cell system: human A549 lung cancer cells
- Reagent: siRNA pair against human genes
- Duration: 48 h transfection before cisplatin; time from cisplatin to read-out not stated
- Challenge: cisplatin at a dose killing half of control-siRNA cells; exact dose and duration not given
- Measured: 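Shift in cisplatin death relative to control siRNA, from -50 (all cells die) to +50 (no cells die); siRNAs harmful on their own scored 0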
- Scale: two-siRNA summed score (-2 to +2): higher = both siRNAs protect from cisplatin killing; -2 means both sensitise; mean protection from cisplatin (shift in death) and protection from cisplatin (shift in death), siRNA C and protection from cisplatin (shift in death), siRNA D: higher = protection from cisplatin killing
- Hit rule: 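Each siRNA scores 0 if harmful alone by LDH or WST-1, otherwise +1 if it reduces and -1 if it increases cisplatin killing; a gene is active when both siRNAs agree (sum +2 or -2)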
- Calls: active = both siRNAs shift cisplatin killing the same way; inactive = no consistent shift, or siRNA harmful alone
This is an unselected part of about 23,000 deposited reagents. Over the whole deposit, 455 (2%) got an active call. 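Active includes both protection and sensitisation; some change values fall well beyond the stated -50 to +50 range.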 Not stated in the record: the amount of reagent.

gene | two-siRNA summed score (-2 to +2) | mean protection from cisplatin (shift in death) (%) | protection from cisplatin (shift in death), siRNA C (%) | protection from cisplatin (shift in death), siRNA D (%) | Call
LOC391405 (retired record) (GeneID 391405) | 1 | 19.3 | 26.8 | 11.8 | inactive
LOC389167 | 1 | 11.2 | 12.8 | 9.6 | inactive
LOC400796 | 0 | -1.1 | -4.6 | 2.5 | inactive
ZNF488 (GeneID 118738) | 0 | 6.6 | 6.7 | 6.5 | inactive
LOC402693 | 0 | 7.8 | 6.7 | 8.9 | inactive
OR7G2 (GeneID 390882) | 0 | 0.9 | 5.6 | -3.7 | inactive
ZNF620 (GeneID 253639) | -1 | 0.5 | 17.5 | -16.6 | inactive
DOCK11 (GeneID 139818) | 1 | 10.4 | 7.2 | 13.6 | inactive
FAM114A2 (GeneID 10827) | 0 | 8.9 | 12.3 | 5.5 | inactive
COL17A1 (GeneID 1308) | 0 | 8 | 6.6 | 9.3 | inactive
NKX6-2 (GeneID 84504) | 0 | -3.3 | 8 | -14.7 | inactive
AGTPBP1 (GeneID 23287) | 0 | 8.7 | 15.9 | 1.6 | inactive
LOC392395 | 1 | 11.5 | -0.1 | 23 | inactive
TBC1D29P (GeneID 26083) | 0 | 12.4 | 10.1 | 14.6 | inactive
TKTL2 (GeneID 84076) | 0 | 1.5 | -1.9 | 4.8 | inactive
FN1 (GeneID 2335) | -1 | 4.3 | -19.2 | 27.8 | inactive
GLI4 (GeneID 2738) | 0 | 10.8 | 26.8 | -5.2 | inactive
FTO (GeneID 79068) | 0 | -1.2 | 3.9 | -6.3 | inactive
REXO5 (GeneID 81691) | 0 | 3.7 | 10.5 | -3.2 | inactive
OR4A47 (GeneID 403253) | 0 | 2.4 | -3.3 | 8.2 | inactive
PEX10 (GeneID 5192) | 0 | 28.1 | -4.1 | 60.2 | inactive
CCDC13 (GeneID 152206) | -1 | -7.6 | 3.2 | -18.4 | inactive
MALL (GeneID 7851) | 1 | 7.6 | -5.7 | 20.9 | inactive
